Results on 26 targets are retold here after the supplement of paper PMC10849652.

Amino acid sequences for entries named in this document (tags omitted). A change or cut given only in a name is not applied to a line headed by its entry.
UniProt Q9UBD5: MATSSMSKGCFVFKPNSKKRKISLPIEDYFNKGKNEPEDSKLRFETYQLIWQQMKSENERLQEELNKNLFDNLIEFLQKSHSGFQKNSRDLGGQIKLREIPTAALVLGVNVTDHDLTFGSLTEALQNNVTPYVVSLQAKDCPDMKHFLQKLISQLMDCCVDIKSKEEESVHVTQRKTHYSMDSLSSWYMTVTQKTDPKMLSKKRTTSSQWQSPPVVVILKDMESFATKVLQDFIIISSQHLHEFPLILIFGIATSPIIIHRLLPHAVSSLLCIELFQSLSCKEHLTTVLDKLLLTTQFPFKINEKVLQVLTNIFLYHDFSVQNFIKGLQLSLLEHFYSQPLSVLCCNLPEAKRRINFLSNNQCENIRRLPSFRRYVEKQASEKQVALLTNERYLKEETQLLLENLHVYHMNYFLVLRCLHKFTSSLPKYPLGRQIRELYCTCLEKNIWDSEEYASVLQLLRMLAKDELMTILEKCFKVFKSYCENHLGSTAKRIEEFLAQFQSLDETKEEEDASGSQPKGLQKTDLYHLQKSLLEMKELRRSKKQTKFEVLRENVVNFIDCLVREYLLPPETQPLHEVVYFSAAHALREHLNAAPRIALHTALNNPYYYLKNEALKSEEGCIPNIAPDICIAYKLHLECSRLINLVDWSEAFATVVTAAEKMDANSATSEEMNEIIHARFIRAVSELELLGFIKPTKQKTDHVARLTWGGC
UniProt Q6N063: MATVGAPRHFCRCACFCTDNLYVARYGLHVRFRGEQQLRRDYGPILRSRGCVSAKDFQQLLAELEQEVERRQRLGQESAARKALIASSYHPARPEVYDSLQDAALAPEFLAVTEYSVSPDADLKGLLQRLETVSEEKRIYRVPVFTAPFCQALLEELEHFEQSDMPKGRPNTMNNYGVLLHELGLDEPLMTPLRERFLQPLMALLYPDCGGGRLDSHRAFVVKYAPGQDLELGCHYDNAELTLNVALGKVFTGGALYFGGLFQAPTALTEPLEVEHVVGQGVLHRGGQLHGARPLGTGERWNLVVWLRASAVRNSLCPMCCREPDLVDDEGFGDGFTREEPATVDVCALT
UniProt Q8WV74: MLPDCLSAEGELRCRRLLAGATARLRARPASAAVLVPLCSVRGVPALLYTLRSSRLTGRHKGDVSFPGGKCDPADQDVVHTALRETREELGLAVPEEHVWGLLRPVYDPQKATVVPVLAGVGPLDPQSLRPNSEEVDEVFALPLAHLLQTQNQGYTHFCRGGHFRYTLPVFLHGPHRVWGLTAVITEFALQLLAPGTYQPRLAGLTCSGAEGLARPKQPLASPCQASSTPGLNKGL
UniProt Q8WZ82: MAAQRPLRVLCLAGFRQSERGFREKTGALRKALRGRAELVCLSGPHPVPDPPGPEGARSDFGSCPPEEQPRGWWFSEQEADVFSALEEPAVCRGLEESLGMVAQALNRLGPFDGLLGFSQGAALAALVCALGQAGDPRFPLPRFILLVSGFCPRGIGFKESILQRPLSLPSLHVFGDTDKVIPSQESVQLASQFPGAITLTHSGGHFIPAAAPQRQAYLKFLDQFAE
UniProt O15460: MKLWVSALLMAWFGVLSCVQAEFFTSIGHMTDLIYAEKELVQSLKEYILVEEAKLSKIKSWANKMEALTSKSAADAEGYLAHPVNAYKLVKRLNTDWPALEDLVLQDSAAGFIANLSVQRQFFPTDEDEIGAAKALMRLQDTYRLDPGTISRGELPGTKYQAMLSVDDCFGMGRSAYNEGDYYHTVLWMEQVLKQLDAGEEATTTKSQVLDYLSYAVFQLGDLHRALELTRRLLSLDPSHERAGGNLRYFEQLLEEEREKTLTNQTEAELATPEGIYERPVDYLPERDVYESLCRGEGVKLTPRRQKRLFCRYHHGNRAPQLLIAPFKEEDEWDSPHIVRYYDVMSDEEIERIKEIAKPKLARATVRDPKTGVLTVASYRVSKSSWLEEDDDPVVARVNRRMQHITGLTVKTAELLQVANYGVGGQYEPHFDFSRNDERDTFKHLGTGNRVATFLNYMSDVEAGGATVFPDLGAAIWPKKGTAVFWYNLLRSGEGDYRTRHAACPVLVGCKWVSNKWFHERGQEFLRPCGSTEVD
UniProt Q5BKU9: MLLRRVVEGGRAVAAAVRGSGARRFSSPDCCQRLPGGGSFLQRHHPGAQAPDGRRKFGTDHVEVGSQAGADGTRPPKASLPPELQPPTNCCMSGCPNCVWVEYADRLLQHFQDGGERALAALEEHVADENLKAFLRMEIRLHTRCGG
UniProt P53370: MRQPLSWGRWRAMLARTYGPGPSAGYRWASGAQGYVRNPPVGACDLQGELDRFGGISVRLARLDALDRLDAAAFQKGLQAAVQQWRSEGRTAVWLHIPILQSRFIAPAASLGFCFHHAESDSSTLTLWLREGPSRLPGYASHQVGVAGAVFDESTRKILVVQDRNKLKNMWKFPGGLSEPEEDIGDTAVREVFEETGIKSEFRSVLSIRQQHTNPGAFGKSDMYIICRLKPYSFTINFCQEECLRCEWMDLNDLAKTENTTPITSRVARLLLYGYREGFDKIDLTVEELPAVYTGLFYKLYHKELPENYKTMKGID
UniProt Q9ULJ1: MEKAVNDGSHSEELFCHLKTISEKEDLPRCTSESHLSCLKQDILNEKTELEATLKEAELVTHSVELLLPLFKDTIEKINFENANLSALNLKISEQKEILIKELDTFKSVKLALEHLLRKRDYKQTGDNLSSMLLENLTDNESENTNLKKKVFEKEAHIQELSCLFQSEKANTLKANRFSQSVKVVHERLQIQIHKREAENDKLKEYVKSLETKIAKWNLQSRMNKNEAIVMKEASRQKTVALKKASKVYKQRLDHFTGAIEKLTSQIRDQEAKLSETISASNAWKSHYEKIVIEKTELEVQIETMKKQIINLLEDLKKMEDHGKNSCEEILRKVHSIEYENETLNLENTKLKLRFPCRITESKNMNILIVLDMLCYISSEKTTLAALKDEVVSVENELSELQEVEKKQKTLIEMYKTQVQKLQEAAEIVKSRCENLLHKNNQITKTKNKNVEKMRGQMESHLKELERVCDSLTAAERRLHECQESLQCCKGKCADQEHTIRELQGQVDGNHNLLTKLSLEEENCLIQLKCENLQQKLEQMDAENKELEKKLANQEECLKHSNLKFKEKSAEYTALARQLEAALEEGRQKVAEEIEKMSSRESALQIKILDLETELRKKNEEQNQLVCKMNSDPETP
UniProt Q9H1P3, whole entry, looked up: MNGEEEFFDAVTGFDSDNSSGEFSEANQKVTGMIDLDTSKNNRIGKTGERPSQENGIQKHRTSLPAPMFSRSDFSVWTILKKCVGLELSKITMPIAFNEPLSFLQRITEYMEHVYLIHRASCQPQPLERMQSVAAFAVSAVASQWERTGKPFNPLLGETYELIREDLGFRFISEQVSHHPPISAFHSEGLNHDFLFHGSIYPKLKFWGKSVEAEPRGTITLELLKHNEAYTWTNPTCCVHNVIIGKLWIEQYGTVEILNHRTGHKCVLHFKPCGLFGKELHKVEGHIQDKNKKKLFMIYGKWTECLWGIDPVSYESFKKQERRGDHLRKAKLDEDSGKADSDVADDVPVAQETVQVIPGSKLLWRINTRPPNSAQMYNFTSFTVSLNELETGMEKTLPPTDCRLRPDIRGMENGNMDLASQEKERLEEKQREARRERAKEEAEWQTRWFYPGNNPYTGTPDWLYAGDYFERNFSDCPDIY
UniProt O15381: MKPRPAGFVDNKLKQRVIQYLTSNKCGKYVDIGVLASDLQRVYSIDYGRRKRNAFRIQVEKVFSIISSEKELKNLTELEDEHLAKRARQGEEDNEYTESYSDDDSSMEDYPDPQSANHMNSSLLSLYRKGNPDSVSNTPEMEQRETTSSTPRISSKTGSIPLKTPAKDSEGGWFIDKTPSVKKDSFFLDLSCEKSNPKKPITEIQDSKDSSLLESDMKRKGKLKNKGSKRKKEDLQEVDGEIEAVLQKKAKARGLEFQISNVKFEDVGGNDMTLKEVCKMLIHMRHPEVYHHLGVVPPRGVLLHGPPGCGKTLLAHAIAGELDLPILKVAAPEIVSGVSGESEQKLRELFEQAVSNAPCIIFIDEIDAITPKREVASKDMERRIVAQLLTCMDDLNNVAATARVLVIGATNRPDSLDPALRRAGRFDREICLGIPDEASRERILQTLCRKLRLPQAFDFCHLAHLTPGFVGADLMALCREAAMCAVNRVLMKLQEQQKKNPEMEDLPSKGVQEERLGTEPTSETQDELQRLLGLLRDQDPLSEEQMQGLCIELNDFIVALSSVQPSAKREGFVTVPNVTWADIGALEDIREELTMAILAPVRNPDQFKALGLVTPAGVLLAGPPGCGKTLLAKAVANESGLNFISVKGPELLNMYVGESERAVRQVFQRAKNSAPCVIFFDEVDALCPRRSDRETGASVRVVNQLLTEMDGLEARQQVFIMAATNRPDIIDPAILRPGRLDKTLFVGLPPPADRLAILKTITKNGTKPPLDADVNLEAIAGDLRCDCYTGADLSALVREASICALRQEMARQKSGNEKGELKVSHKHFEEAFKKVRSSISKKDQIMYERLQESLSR
UniProt Q9BRQ3: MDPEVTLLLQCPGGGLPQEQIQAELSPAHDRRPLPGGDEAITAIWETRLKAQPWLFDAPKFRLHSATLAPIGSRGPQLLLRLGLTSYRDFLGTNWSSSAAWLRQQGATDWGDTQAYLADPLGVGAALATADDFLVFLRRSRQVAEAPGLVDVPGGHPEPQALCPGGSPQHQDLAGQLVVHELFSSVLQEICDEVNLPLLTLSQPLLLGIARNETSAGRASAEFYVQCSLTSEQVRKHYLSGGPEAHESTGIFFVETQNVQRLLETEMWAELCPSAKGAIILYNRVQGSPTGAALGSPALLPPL
UniProt Q8IVL6: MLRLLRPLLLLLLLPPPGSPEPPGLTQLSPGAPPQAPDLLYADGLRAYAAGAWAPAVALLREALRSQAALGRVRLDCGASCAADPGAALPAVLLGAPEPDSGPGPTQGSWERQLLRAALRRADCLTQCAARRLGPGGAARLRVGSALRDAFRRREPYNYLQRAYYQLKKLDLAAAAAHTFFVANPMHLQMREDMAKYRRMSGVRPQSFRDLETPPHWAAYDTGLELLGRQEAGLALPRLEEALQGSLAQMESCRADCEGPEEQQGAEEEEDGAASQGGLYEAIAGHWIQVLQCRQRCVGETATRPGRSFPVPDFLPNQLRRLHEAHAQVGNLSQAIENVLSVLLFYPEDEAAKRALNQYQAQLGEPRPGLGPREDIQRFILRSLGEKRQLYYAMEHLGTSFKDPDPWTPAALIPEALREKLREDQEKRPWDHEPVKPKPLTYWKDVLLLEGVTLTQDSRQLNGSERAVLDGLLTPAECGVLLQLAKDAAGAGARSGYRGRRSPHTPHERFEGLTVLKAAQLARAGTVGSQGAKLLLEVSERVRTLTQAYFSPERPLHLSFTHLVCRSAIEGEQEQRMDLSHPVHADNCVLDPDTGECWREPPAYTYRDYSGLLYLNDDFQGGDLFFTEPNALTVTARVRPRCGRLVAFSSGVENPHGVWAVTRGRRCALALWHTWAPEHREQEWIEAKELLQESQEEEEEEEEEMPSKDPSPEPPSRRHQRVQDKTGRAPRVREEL
UniProt Q9BZD4: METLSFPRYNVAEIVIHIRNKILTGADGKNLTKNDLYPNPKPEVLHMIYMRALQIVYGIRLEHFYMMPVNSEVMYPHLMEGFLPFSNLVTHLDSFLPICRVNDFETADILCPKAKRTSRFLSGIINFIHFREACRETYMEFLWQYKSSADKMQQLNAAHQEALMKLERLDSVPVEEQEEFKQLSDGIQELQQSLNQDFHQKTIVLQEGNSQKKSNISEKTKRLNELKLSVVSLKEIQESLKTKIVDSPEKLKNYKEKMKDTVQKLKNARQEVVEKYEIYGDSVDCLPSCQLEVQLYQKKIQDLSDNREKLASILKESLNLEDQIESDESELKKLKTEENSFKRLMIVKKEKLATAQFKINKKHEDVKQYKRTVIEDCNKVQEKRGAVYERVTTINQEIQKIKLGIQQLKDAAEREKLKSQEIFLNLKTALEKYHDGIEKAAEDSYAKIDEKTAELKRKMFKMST
UniProt Q86UD1: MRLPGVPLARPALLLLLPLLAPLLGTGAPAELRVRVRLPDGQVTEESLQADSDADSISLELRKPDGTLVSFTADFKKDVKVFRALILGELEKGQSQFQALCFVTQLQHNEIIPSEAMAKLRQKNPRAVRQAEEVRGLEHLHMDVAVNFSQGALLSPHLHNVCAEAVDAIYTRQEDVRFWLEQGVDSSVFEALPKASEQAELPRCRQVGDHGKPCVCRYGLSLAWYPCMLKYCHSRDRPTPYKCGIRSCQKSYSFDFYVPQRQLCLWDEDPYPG
UniProt Q99935: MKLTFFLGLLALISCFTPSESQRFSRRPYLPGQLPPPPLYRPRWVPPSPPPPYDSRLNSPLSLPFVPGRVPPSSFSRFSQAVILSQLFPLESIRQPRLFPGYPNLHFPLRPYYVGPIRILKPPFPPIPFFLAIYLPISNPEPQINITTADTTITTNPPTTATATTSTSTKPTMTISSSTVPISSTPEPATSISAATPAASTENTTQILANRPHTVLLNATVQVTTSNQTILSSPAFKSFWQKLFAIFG

The other results are listed elsewhere or left out.

Compound in one experiment: O=C(CCCCCCNC(=O)c1cnc(N(c2ccccc2)c2ccccc2Cl)nc1)NO [citarinostat]
Put plainly: log2 fold change, soluble protein after heating vs DMSO (PISA); higher = thermal stabilisation; K562 cells, 10 uM, 30 min; active = over 0.2 and 3.5 SD of the protein, either way, in both replicates (recomputed). The gist of the method: (§1)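 Thermal stability values are relative to control samples and come from duplicates. They are expressed as log2 fold changes. For measurement, K562 cells (2×10^6 cells/mL) received 10 μM compound for 30 min, and aliquots were heated for 3 min over 48°C-58°C, pooled, and extracted at 4°C in PBS with 0.5% NP-40. Soluble protein, the supernatant after 21,000xg for 90 min, was quantified by TMTpro 16plex LC-MS/MS with equalised channel sums.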
Regarding ORC3 (UniProt Q9UBD5), the log2 fold change was inactive: 0.032.
For the target OGFOD2 (UniProt Q6N063), the log2 fold change is inactive: 0.036.
Take NSUN7 (UniProt Q8NE18): the log2 fold change was inactive: -0.186.
As to NUDT8 (UniProt Q8WV74), the log2 fold change is inactive: 0.026.
On to OVCA2 (UniProt Q8WZ82), for which the log2 fold change was inactive: -0.085.
On the same count and under the same terms, the result for ORMDL1 (UniProt Q9P0S3) reads inactive: 0.113; that for OXR1 isoform 2 (UniProt Q8N573), inactive: 0.013.
On the same count and under the same terms, the result for ORC6 (UniProt Q9Y5N6) reads inactive: 0.062; that for ORAI1 (UniProt Q96D31), inactive: 0.491; that for ORC2 (UniProt Q13416), inactive: -0.017.
On the same count and under the same terms, the result for P4HA2 (UniProt O15460) reads inactive: -0.019; that for OXLD1 (UniProt Q5BKU9), inactive: -0.036.
In the case of NUDT6 (UniProt P53370), the log2 fold change is inactive: 0.164.
On the same count and under the same terms, the result for ODF2L isoform 4 (UniProt Q9ULJ1) reads inactive: -0.085; that for OBSCN (UniProt A6NGQ3), inactive: -0.009.

Compound in a further experiment: O=C(O)c1ccc2c(c1)nc(Nc1cccc(Cl)c1)c1ccncc12 [silmitasertib]
The experiment is described as above. The gist of the method:
as §1
As to OSBPL2 (UniProt Q9H1P3), the log2 fold change was inactive: 0.148.
Take OGFOD2 (UniProt Q6N063): the log2 fold change was inactive: 0.097.
Turning to P2RY1 (UniProt P47900), the log2 fold change was inactive: 0.145.
For the target OPA3 isoform 2 (UniProt Q9H6K4), the log2 fold change was inactive: -0.043.
With NSUN7 (UniProt Q8NE18), the log2 fold change is inactive: 0.209.
Still for that read-out and setting: the result for NUDT8 (UniProt Q8WV74) reads inactive: -0.119; that for NVL (UniProt O15381), inactive: -0.045.
As to OVCA2 (UniProt Q8WZ82), the log2 fold change is inactive: 0.206.
Take OGFOD3 (UniProt Q6PK18): the log2 fold change is inactive: -0.12.
Consider ORMDL1 (UniProt Q9P0S3), for which the log2 fold change was inactive: 0.076.
Turning to PABPC1 (UniProt H0YAR2), the log2 fold change is inactive: 0.229.
For the target NUDT22 (UniProt Q9BRQ3), the log2 fold change is inactive: 0.232.
Turning to P3H3 (UniProt Q8IVL6), the log2 fold change was inactive: 0.172.
With ORAI1 (UniProt Q96D31), the log2 fold change is inactive: 0.11.
As for NUF2 (UniProt Q9BZD4), the log2 fold change was inactive: 0.356.
On to ORC2 (UniProt Q13416), for which the log2 fold change is inactive: 0.176.
OAF (UniProt Q86UD1): the log2 fold change was inactive: 0.019.
With P4HA2 (UniProt O15460), the log2 fold change was inactive: 0.025.
The same measure, in the same setting: the result for OXLD1 (UniProt Q5BKU9) reads inactive: -0.028; that for NUDT6 (UniProt P53370), active: -0.517; that for ODF2L isoform 4 (UniProt Q9ULJ1), inactive: 0.08.
As to OPRPN (UniProt Q99935), the log2 fold change is inactive: -0.018.
